The text below walks through data of publication PMC4868535, “A G-protein activation cascade from Arl13B to Arl3 and implications for ciliary targeting of lipidated proteins” (eLife, 2015).

Assay [1] addresses CrArl3 (Chlamydomonas reinhardtii). In words: crystal structure; CrArl13B·GppNHp and CrArl3·GDP mixed 1.2:1 with alkaline phosphatase; sitting drop, 0.1M Tris pH 8.5, 25% PEG 6000; GppNHp in both active sites; both purified.
Assay [2] deals with GST-CrArl3 (Chlamydomonas reinhardtii). Kind of assay: condition: only CrArl13B loaded with GDP (1 mg/ml, ~37 µM); pull-down; 50 µg GST-CrArl3 on 50 µl glutathione agarose; 1 mg/ml (~37 µM) CrArl13B 18-278 loaded with GDP, 30 min, buffer M; SDS-PAGE; both purified.
Assay [3] shares this target. In words: pull-down; 50 µg GST-CrArl3 (loaded with GDP or GppNHp) on 50 µl glutathione agarose; 1 mg/ml (~37 µM) CrArl13B 18-278 loaded with GppNHp, 30 min, buffer M (25 mM Tris pH 7.5, 100 mM NaCl, 5 mM MgCl2, 3 mM β-mercaptoethanol, 1% glycerole); SDS-PAGE; both purified.

These are yes or no findings as the source states them, for the method shown. For part of these data: Binding calls can cover weak binding; strength is not graded here.

B1: CrArl13B^18-–278 (domain or fragment, UniProt A8INQ0 18-278)
chain: RKITIALLGLDNAGKTTLLNSIQGEVDRDTTPTFGFNSTTLNEGKYKIEVFDLGGGKNIRGVWKKYLAEVHAIVYVVDAADPGRFEESKMTMAEVLENQFMRDKPICIFANKQDLPTAAPAAEVVKGLGLATCRNSHNVFPCTAKMPAGQDVDHRLRDGLKWLVGTVDREFGRLDPRVQTEAEEVRQEEARKKKEREERLRKQREERLRQQKEEEERAREVEKENELHDGKAPSLLAAGGGVVGAAAAGVNGVMVDEQQEL
Take B1: the binding entry is listed as “binds” in assay [1], “no binding” in assay [2] and “binds weakly” in assay [3].
